No constants are given. Whether binding was seen depends on the method and setting. Some entries that bind do so weakly or less than the wild type. Where a sequence is shown, tags or fusion partners need not be part of it.
Columns and labels:
[1] = molecular target: T1, Full-length human KIF5A heavy chain (WT), C-terminal FLAG tag (human), Q12840; experiment: negative-stain electron microscopy; KIF5A 2 µM in low salt buffer cross-linked with 1 mM BS3, diluted to 20 nM, 1% uranyl acetate; 2D class averages and a 24 Å 3D map; both purified; settings: remark: other sources report otherwise
T1 chain: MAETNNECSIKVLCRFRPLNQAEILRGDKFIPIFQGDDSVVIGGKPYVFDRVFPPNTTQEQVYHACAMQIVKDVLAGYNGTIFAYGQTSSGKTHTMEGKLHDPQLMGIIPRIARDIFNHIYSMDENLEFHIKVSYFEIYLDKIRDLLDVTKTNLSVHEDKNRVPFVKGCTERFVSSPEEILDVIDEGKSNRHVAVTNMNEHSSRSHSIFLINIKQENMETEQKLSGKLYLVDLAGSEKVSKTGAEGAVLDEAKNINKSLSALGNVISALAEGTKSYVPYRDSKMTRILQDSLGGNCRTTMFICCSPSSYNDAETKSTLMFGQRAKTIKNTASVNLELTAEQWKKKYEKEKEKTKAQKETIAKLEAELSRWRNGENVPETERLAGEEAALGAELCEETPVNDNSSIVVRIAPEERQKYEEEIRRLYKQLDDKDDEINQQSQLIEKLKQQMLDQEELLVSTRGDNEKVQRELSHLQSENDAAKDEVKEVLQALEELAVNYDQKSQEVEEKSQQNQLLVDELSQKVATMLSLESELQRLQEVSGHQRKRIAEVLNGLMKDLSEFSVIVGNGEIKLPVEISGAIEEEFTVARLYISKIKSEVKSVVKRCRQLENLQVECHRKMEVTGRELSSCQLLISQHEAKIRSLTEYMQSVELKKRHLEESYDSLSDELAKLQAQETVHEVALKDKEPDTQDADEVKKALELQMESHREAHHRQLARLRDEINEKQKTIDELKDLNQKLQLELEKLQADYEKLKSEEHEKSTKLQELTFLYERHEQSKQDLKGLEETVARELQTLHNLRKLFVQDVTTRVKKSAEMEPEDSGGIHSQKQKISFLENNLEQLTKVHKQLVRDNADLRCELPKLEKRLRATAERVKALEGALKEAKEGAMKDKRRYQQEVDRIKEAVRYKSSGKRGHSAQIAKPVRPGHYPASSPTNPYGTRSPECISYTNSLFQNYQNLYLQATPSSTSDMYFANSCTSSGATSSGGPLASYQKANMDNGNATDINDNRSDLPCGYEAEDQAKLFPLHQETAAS

[2] = molecular target: T1, Full-length human KIF5A heavy chain …; experiment: cross-linking; BS3 cross-linking with mass spectrometry (XL-MS); 2 µM KIF5A in low salt buffer (150 mM KCl, 10 mM MOPS pH 7.2, 2 mM MgCl2, 1 mM EGTA, 1 mM ATP), 25 °C, 30 min, quenched with Tris-HCl pH 8; trypsin digest, LC-MS/MS; both purified; settings: remark: other sources report otherwise

B1: Full-length human KIF5A heavy chain (WT), C-terminal FLAG tag, Q12840 1-1032 (natural protein)
chain: T1 chain
Which binding [1] does the source give for B1 here?
Its binding is “binds”.

And the binding [2]?
Its binding is “binds”.
